PubChem BioAssay AID602196 – INSERM | 2012
In all, the deposit lists about 23,000 reagents; below is a random part of them. Over the whole deposit, 455 (2%) got an active call. 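Active includes both protection and sensitisation; some change values fall well beyond the stated -50 to +50 range.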 Entries without a mark were called inactive. Further read-outs or replicates are left out here. The record does not give: the amount of reagent.

Test: 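Modifiers of cisplatin sensitivity in A549 cells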
System: human A549 lung cancer cells
Knock-down reagent: siRNA pair against human genes
Time to read-out: 48 h transfection before cisplatin; time from cisplatin to read-out not stated
Conditions: cisplatin at a dose killing half of control-siRNA cells; exact dose and duration not given
Detection: 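Cisplatin cell death as a shift from the 50% death seen with control siRNA; siRNAs toxic or growth-blocking alone scored 0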
Reading the numbers: two-siRNA summed score (-2 to +2): higher = both siRNAs protect from cisplatin killing; -2 means both sensitise; mean protection from cisplatin (shift in death) and protection from cisplatin (shift in death), siRNA C: higher = protection from cisplatin killing
Call rule: 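siRNAs harmful alone (LDH or WST-1) get 0; others get +1 for less and -1 for more cisplatin killing; genes are active when the two siRNAs give the same sign, summing to ±2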
Calls: active = both siRNAs shift cisplatin killing the same way; inactive = no consistent shift, or siRNA harmful alone

| gene symbol | PubChem SID | two-siRNA summed score (-2 to +2) | mean protection from cisplatin (shift in death) (%) | protection from cisplatin (shift in death), siRNA C (%) |
| --- | --- | --- | --- | --- |
| KHK | SID131522291 | 1 | 17.5 | 16.5 |
| PPP1R27 | SID131508973 | 0 | 1.7 | 4 |
| TFB2M | SID131509955 | 0 | 2.7 | 4.2 |
| SLC7A9 | SID131512670 | 0 | 5.7 | 1.2 |
| RYR3 | SID131506711 | 0 | -1.1 | 4.3 |
| ASIC5 | SID131502970 | 0 | -17 | -12.2 |
| CALHM2 | SID131500668 | -1 | -18 | -23.6 |
| EPHB6 | SID131503074 | 0 | -14.2 | -12 |
| FEM1C | SID131502337 | -1 | -3.3 | -14.7 |
| CBFA2T3 | SID131515286 | 0 | 8.9 | 20.1 |
| OTUD7B | SID131503501 | 0 | -9.5 | -7.4 |
| BARX2 | SID131522413 | 1 | 18.3 | 26.5 |
| TAC3 | SID131501455 | -1 | -9.6 | -15.8 |
| LCLAT1 | SID131514551 | 0 | 7.9 | 8.8 |
| MAP1S | SID131507725 | 0 | 0.2 | -4.7 |
| PDIA5 | SID131502920 | 0 | -18.5 | -15.3 |
| MSTN | SID131522791 | 1 | 24.4 | 27.9 |
| RPS2 | SID131518804 | 0 | 28.3 | 25.1 |
| TRPC7 | SID131518414 | 0 | 19.4 | 29.1 |
| VAPB | SID131509130 | 0 | 1.8 | 7.8 |
| UBR1 | SID131502679 | -1 | 1.9 | 35.7 |
| REXO2 | SID131501874 | -1 | -6.8 | -17.7 |
| TPRN | SID131517432 | 0 | 13.4 | -1.4 |

2 entries from above, ordered by “two-siRNA summed score (-2 to +2)”, ascending:
| gene symbol | PubChem SID | two-siRNA summed score (-2 to +2) | mean protection from cisplatin (shift in death) (%) | protection from cisplatin (shift in death), siRNA C (%) |
| --- | --- | --- | --- | --- |
| RPS2 | SID131518804 | 0 | 28.3 | 25.1 |
| TRPC7 | SID131518414 | 0 | 19.4 | 29.1 |
